We go through four sequences from US20060282909A1 (published 2006).

For part of these data: Where cells or extracts were used, other partners may take part. Protein sequences can lack the tags named with them. For part of these data: Construct, isoform or probe ends are uncertain for at least one entry. For part of these data: A negative result means that nothing was seen under these conditions.

For series [1], the target named is T1, NF-AT3 Rel-homology domain (NFATC4) (Homo sapiens) (UniProt Q14934).
T1 sequence: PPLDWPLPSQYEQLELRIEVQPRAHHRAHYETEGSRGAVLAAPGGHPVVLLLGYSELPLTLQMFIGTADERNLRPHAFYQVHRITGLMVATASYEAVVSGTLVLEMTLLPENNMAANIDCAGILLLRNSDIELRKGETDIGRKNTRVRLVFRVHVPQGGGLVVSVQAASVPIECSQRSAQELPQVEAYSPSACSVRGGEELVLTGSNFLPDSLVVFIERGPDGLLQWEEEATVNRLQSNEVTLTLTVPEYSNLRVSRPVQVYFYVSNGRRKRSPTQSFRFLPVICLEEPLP
As to the kind of experiment: EMSA. To be noted: protein translated in vitro, label: 32P. A general note: A gel shift assay detects complexes by their altered migration in electrophoresis.

In series [2] the target is T2, NF-AT3 endogenous (cardiac extract) (UniProt D3Z9H7).
T2 sequence (looked up, limits assumed): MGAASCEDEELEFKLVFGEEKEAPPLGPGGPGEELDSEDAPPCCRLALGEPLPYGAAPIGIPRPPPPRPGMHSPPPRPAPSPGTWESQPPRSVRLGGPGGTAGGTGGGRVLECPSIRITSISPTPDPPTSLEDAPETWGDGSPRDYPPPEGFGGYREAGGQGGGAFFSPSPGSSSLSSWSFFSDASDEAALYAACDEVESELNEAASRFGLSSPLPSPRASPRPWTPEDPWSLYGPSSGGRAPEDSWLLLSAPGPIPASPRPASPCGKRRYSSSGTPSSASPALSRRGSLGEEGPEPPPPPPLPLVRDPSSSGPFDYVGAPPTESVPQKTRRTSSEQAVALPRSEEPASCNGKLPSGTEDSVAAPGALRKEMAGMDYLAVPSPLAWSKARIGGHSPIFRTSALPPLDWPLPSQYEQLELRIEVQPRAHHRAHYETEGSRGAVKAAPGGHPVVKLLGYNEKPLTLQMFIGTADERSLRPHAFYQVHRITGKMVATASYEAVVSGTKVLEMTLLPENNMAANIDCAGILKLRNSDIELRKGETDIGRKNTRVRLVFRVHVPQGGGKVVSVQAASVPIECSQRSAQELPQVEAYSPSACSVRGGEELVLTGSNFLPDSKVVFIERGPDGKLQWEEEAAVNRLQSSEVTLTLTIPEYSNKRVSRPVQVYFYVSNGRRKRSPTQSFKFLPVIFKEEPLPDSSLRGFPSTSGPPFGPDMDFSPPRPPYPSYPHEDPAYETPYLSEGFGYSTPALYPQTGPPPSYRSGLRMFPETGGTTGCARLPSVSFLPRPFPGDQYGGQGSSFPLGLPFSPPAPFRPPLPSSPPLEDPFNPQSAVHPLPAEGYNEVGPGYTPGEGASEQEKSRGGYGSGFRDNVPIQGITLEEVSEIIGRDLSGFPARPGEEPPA
As to the kind of experiment: EMSA. To be noted: protein in an extract; label: 32P.

For series [3], the target named is T2, NF-AT3 endogenous (cardiac extract). Description: competition with a labelled probe. To be noted: unlabeled IL-2 site at 100-fold excess eliminates complexes on -927 probe; protein in an extract; label: 32P.

As to “TCCCTGCCTTTTCCAGCAACGGT (double strand) [BNP -327]”, the binding result in series [1] (no binding detected) is “no binding”.

In the case of “CTATCCTTTTGTTTTCCATCCTG (double strand) [BNP -927]”, the binding result in series [1] (binds as avidly as IL-2 consensus site, 1 ug poly(dI-dC), 20 min room temperature) is reported as “binds”; in series [2] it was “binds”.

As to “GCTCCAGGATAAAAGGCCACGGT (double strand) [BNP -27]”, the binding result in series [1] (no binding detected, site also binds GATA4 per cited work) is “no binding”.

In the case of “TACATTGGAAAATTTTATTACAC (double strand) [IL-2 NF-AT consensus site]”, the binding result in series [3] is reported as “binds”; in series [1] (1 ug poly(dI-dC), room temperature), “binds”.
